The campaign covered roughly 340,000 compounds. About 170 (0.05%) were called active. The shares of active, inactive and inconclusive entries below differ from those in the screen. Calls follow the shape of the dose curve; as a rule, active = well fitted inhibition curve with a large enough effect in the signal ratio, with a control signal flat (not every such curve was filed as active); inconclusive = small, poorly fitted or top-dose-only effect, or effect the other way, or a change in a side signal; inactive = flat fitted curve, though single readings scatter; the % refers to the signal ratio. A potency beside an inconclusive call is a rough fit, not a confirmed value.
Test: qHTS Assay to Find Inhibitors of Chronic Active B-Cell Receptor Signaling;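 as to activity change, negative = inhibition: plate controls were basal doxycycline-induced cells for no effect and cells given 10 µM MG132 for full effect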
Details: ABC-DLBCL IkBa-CBG/CBR reporter, luminescence ratio (green luciferase fused to IkBa over red control in TMD8 lymphoma cells), 4 h; activity change, negative = inhibition: at 46.1 µM (top of the series) unless noted
In short: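 Doxycycline induced both beetle luciferases in TMD8 lymphoma cells; IKK-driven degradation limits the IkappaBalpha-fused green signal, while red luminescence normalises for cell number and nonspecific effects. Compounds tested up to 46 uM, 4 hrs.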
Potency is read from the fitted curve at half-maximal effect.

Row | SMILES | activity change, negative = inhibition | Potency
1 | COc1ccc(-c2[nH]ncc2CNCc2cc(C)n(C)n2)c(F)c1 | inconclusive: 1.85% | 
2 | C/C(=N\Nc1nc2ccccc2[nH]1)c1cccs1 |  | inconclusive: 4.61 µM [falling, single point]
3 | CC(=O)Nc1cccc(-n2c(=O)n(Cc3ccccc3)c(=O)c3[nH]cnc32)c1 | inconclusive: 0.865% | 
4 | CC1CCCCC1NS(=O)(=O)c1ccc(S(=O)(=O)N2CCN(CCC#N)CC2)cc1 (centres undefined) | inactive | 
5 | CCOC(=O)c1sc(N/N=C/c2cccc(C)c2)nc1C | inactive | 
6 | Cc1cc(C)cc(NC(=S)N=Nc2c(O)n(C)c3ccc(S(=O)(=O)N4CCOCC4)cc23)c1 |  | inconclusive: 0.92 µM [falling, full curve, poor fit]
7 | CC(C)(C)OC(=O)N1CCC(c2cc(-c3cccs3)n[nH]2)CC1 | inconclusive: -18.7% | 
8 | COc1ccc(S(=O)(=O)N2CCOCC2)cc1NC(=O)COc1ncnc2ccccc12 | inconclusive: 2.52% | 
9 | CC1CN(C(NC(=O)c2ccccc2)C(Cl)(Cl)Cl)CC(C)O1 (centres undefined) |  | inconclusive: 35.5 µM [falling, single point]
10 | CC(C)(C)OC(=O)NCc1ccc(NC(=O)c2nc[nH]c2C(=O)NCCCCNC(=O)c2[nH]cnc2C(=O)Nc2ccc(CNC(=O)OC(C)(C)C)cc2)cc1 | inactive | 
11 | O=C(CN(c1cccc(C(F)(F)F)c1)S(=O)(=O)c1ccccc1)Nc1cccc(Cl)c1 |  | inconclusive: 11.2 µM [rising, partial curve, poor fit]
12 | O=C(O)C1CC=CCC1C(=O)Nc1ccc2c(c1)CCC2 (centres undefined) | inconclusive: 13% | 
13 | CCN(CC(=O)Nc1c(F)cccc1F)C(=O)/C=C/c1ccc(Br)s1 | inconclusive: -18.8% | 
14 | CCOc1ccc2nc(NC(=O)c3ccccn3)sc2c1 |  | inconclusive: 3.98 µM [cytotoxic, full curve, poor fit]
15 | CCCN(C(=O)c1cc(S(=O)(=O)N(C)c2ccc(OCC)cc2)ccc1C)C1CCS(=O)(=O)C1 (centres undefined) | inactive | 
16 | O=C(Nc1ccc(N2CCCC2)cc1)c1ccc(Cl)cc1Cl | inactive | 
17 | COc1cc(OC)cc(C(=O)Nc2c(C)nn(-c3ccccc3)c2C)c1 | inactive | 
18 | O=C(NCc1ccccc1)c1cnc2n(c1=O)CCS2 | inactive | 
19 | CC(NC(=O)COc1ncnc2cc([N+](=O)[O-])ccc12)c1ccccc1 (centres undefined) | inconclusive: -13.1% | 
20 | CNC(=O)C(=O)NCCN1CCN(C(=O)c2ccc([N+](=O)[O-])cc2)CC1 |  | inconclusive: 6.31 µM [falling, single point]
21 | O=C(O)c1ccc(N=Nc2c(O)[nH]c3ccccc23)cc1 | inconclusive: 172% | 
22 | O=C(Nc1ccc(Cl)cn1)C1CCN(S(=O)(=O)c2cccs2)CC1 |  | inconclusive: 11.2 µM [rising, partial curve, poor fit]
23 | COc1ccc(CC(=O)NNC2=Nc3cccc4cccc2c34)cc1OC | inactive | 
24 | O=C(c1cc(S(=O)(=O)N2CCOCC2)ccc1F)N1CCCc2ccccc21 | inconclusive: -16% | 
25 | Clc1ccccc1-c1nnc(CNC2CC2)o1 |  | inconclusive: 5.62 µM [falling, partial curve, poor fit]
26 | CCOc1nc(SCCOc2ccc(C)cc2)nc(N(C)C)n1 | inactive | 
27 | COC(=O)c1ccc(NC(=O)CN(C)S(=O)(=O)c2ccc(OC)c(C)c2)cc1 | inconclusive: 6.35% | 

Of the compounds above, these have a Cl atom.
Row | SMILES | activity change, negative = inhibition | Potency
9 | CC1CN(C(NC(=O)c2ccccc2)C(Cl)(Cl)Cl)CC(C)O1 (centres undefined) |  | inconclusive: 35.5 µM [falling, single point]
11 | O=C(CN(c1cccc(C(F)(F)F)c1)S(=O)(=O)c1ccccc1)Nc1cccc(Cl)c1 |  | inconclusive: 11.2 µM [rising, partial curve, poor fit]
16 | O=C(Nc1ccc(N2CCCC2)cc1)c1ccc(Cl)cc1Cl | inactive | 
22 | O=C(Nc1ccc(Cl)cn1)C1CCN(S(=O)(=O)c2cccs2)CC1 |  | inconclusive: 11.2 µM [rising, partial curve, poor fit]
25 | Clc1ccccc1-c1nnc(CNC2CC2)o1 |  | inconclusive: 5.62 µM [falling, partial curve, poor fit]

The list continues.

Row | SMILES | activity change, negative = inhibition | Potency
28 | CCOC(=O)c1cc(-c2ccco2)nc2c1c(C)nn2-c1cccc(Cl)c1 | inactive | 
29 | COc1ccc(N2CCN(CC(O)c3c[nH]c4ccc(OC)cc34)CC2C)cc1 (centres undefined) | inconclusive: 20.2% | 
30 | OCC(O)/C=N/Nc1nc2ccccc2s1 (centres undefined) |  | inconclusive: 31.6 µM [falling, single point]
31 | Cc1cccc(Cc2c(C)nc3nc(SCc4cccc(F)c4)nn3c2C)c1 | inactive | 
32 | Cc1ccc2nc(SCC(=O)Nc3ccc4c(c3)OCCO4)[nH]c2c1 |  | inconclusive: 18.4 µM [falling, partial curve, poor fit]
33 | CCOc1cc(/C=C2\CCn3c2nc2cc(Cl)ccc2c3=O)ccc1O |  | inconclusive: 2.51 µM [falling, full curve]
34 | CCCC(=O)Nc1ccc(C2C(=O)c3ccccc3C2=O)cc1 | inconclusive: 6.64% | 
35 | COc1ccc2cc(C(c3nnnn3C3CCCC3)N3CCc4ccccc4C3)c(=O)[nH]c2c1 (centres undefined) | inactive | 
36 | CCNC(=O)c1ccc(NS(=O)(=O)c2ccc3[nH]c(=O)[nH]c3c2)cc1 |  | inconclusive: 31.6 µM [rising, single point]
37 | Cc1cc(C)c(O)c(-c2cc(C(=O)Nc3c(C)n(C)n(-c4ccccc4)c3=O)[nH]n2)c1 | inconclusive: -12.9% | 
38 | CC(C)N=c1scc(-c2ccco2)n1/N=C/c1ccc(O)c(O)c1 |  | inconclusive: 31.6 µM [falling, single point]
39 | CCN(CC)CCN1C(=O)C(O)=C(C(C)=O)C1c1ccccc1[N+](=O)[O-] (centres undefined) | inactive | 
40 | CC(C)(C)CC(C)(C)NC(=S)Nc1ccc2nc(-c3ccccn3)c(-c3ccccn3)nc2c1 | inactive | 
41 | COc1ccc(-c2nnc(SCC(=O)c3ccc(NC(C)=O)cc3)o2)cc1OC | inconclusive: 4.57% | 
42 | Cc1ccc(C2c3c(-c4ccccc4O)n[nH]c3C(=O)N2Cc2ccncc2)cc1 (centres undefined) | inconclusive: -18.4% | 
43 | O=C(CCl)Nc1ccc(N=Nc2ccccc2)cc1 |  | inconclusive: 23.1 µM [falling, single point]
44 | CCN(CC)S(=O)(=O)c1ccc(OC)c(NC(=S)Nc2cccc(C)c2)c1 | inconclusive: 12.1% | 
45 | CCn1c(O)c2ccc(C(=O)N=NC(=O)c3ccccc3)cc2c1O | inconclusive: -13.8% | 
46 | O=C(O)CCC(=O)N1CCC(n2nnc3cc(C(F)(F)F)ccc32)CC1 | inactive | 
47 | COc1cc(-c2cc(=O)c3ccccc3o2)ccc1O |  | inconclusive: 15.8 µM [falling, partial curve]
48 | Cc1cc(C)cc(N(C(=O)c2csnn2)C(C(=O)NC(C)(C)C)c2cccnc2)c1 (centres undefined) | inconclusive: 0.658% | 
49 | CC[C@@]12C(=O)N(c3cccc(F)c3)C(=O)N1[C@H](c1ccc(Cl)cc1)[C@@H]1C(=O)N(C3CCCCC3)C(=O)[C@@H]12 | inconclusive: 4.33% | 
50 | CC(C)c1ccc(/C=C/C(=O)NC2CCCCC2)cc1 | inconclusive: 0.0828% | 
51 | Cc1ccc2cc(/C=N/Nc3nc4ccccc4[nH]3)c(Cl)nc2c1 |  | inconclusive: 7.31 µM [falling, partial curve, poor fit]
52 | CCOc1ccc(C(=O)NCC(=O)NCCCn2nc(C)cc2C)cc1OCC | inconclusive: -0.846% | 
53 | CC(=O)N1CCc2cc(S(=O)(=O)NCCC(=O)NCCc3ccc(C)cc3)ccc21 | inconclusive: 8.68% | 
54 | CN(CC(=O)Nc1cccc(F)c1)C(=O)CCc1nc2ccccc2c(=O)[nH]1 | inactive | 

Row | SMILES | activity change, negative = inhibition | Potency
55 | Cc1ccc(SCC(=O)N(C)CC(=O)Nc2cccc(F)c2)cc1 | inconclusive: 2.55% | 
56 | O=C(NCC1CCCO1)c1ccc2c(c1)N(Cc1ccccc1)C(=O)CS2 (centres undefined) | inactive | 
57 | O=C(COC(=O)c1cc(Cl)cc(Cl)c1)NCCN1C(=O)CSC1=O | inconclusive: 0.397% | 
58 | O=C(OCC(=O)N1CCOCC1)c1ccccc1OCc1ccc(Cl)cc1 | inconclusive: -13.1% | 
59 | CCC1CSC(Nc2ccc(C(=O)/C=C/c3cccc(C)c3)cc2)=N1 (centres undefined) | inactive | 
60 | CC(C)OC(=O)c1ccc(COC(=O)c2cnccn2)cc1 | inconclusive: 7.62% | 
61 | COc1ccc(/C=C2\CCC(C3CCCC3)C2=O)cc1 (centres undefined) | inactive | 
62 | NC(=S)N/N=C1\c2ccccc2-c2c(C(=O)O)cccc21 | inactive | 
63 | CCOC(=O)NC(=O)COC(=O)CCCSc1nc2ccccc2s1 |  | inconclusive: 0.2 µM [activator, full curve, poor fit]
64 | CCCCCCc1c(O)c2ccccc2[nH]c1=O | inconclusive: 13.1% | 
65 | Cc1ccccc1NC(=O)C1CC(=O)n2ncnc2N1 (centres undefined) | inconclusive: -0.264% | 
66 | CC[C@]12c3[nH]c4ccc(Cl)cc4c3CCN1C(=O)[C@@H](CC(=O)NCCc1ccccn1)C[C@@H]2C(=O)N1CCN(C(=O)c2ccco2)CC1 | inconclusive: -0.908% | 
67 | Cn1c(N=Nc2ccc(N3CCOCC3)cc2)[n+](C)c2ccccc21 | inactive | 
68 | Oc1ccc2c(ccc3[nH]cnc32)c1 | inconclusive: -3.36% | 
69 | O=C(COC(=O)c1ccco1)Nc1ccccc1[N+](=O)[O-] | inconclusive: 3.91% | 
70 | Cc1ccccc1-c1cc(C(=O)Nc2sc(C(=O)OC(C)C)c(C)c2C#N)c2ccccc2n1 | inconclusive: -0.501% | 
71 | Cc1ccccc1NC(=O)CC1C(=O)Nc2ccccc2N1CC(=O)N(C)C1CCS(=O)(=O)C1 (centres undefined) | inconclusive: -1.15% | 
72 | S=c1sc2c(N3CCN(Cc4ccccc4)CC3)ncnc2n1-c1ccccc1 |  | inconclusive: 25.9 µM [rising, single point]
73 | C/C(CCC(C)C)=N\NC(=O)COc1ccccc1-c1ccccc1 |  | inconclusive: 6.31 µM [falling, full curve]
74 | O=C(/C=C/c1ccccc1)Nn1cnc2ccccc2c1=O |  | inconclusive: 20.6 µM [falling, partial curve]
75 | COc1ccccc1-n1cnc2cc(NC(=O)c3ccco3)ccc21 |  | inconclusive: 18.4 µM [falling, partial curve]
76 | C=CCOc1cc(OC)c(OC)c(OC)c1 | inconclusive: 12% | 
77 | O=C(NCC(c1cccs1)N1CCOCC1)c1cc(S(=O)(=O)N2CCOCC2)c(Cl)cc1Cl (centres undefined) | inactive | 
78 | CCN1CCN(C(=O)c2cc3c(OC)c(OC)c(OC)cc3[nH]2)CC1 | inconclusive: -6.33% | 
79 | Cc1ccc(C(=O)Nc2ccccc2OC(F)F)cc1 | inconclusive: 26.4% | 

Source: PubChem BioAssay AID493014 (National Center for Advancing Translational Sciences (NCATS), 2011)
